Assay [1] deals with syntenin PDZ2 domain (residues 196-275), wild type (human) (UniProt O00560). In words: SEC-MALS; Shodex KW402.5-4F column, 0.2 ml per min, PBS buffer; Dawn Heleos II MALS detector; both purified. (In gel filtration, larger molecules generally elute earlier.)
Assay [2] has the same target. The experiment in a line: SEC; analytical SEC, Superdex 75 10/300 GL, 25 mM HEPES, 150 mM NaCl, pH 7.4; elution at 14 ml, ~10 kDa; both purified.
The target of assay [3] is syntenin PDZ2 domain (residues 196-275), mutant K214A/K250A (human) (UniProt O00560). The experiment in a line: SEC-MALS; Shodex KW402.5-4F column, 0.2 ml per min, PBS buffer; Dawn Heleos II MALS detector; both purified.

Substitutions are numbered along the chain they refer to. Numbers in names are those of the source. Results are given in words; binding and its absence hold for the method and conditions named.

B1: syntenin PDZ2 domain (residues 196-275), wild type (domain or fragment, UniProt O00560 196-275)
chain: ERTITMHKDSTGHVGFIFKNGKITSIVKDSSAARNGLLTEHNICEINGQNVIGLKDSQIADILSTSGTVVTITIMPAFIF
As for B1, the binding entry in assay [1] is “no binding”.

B2: syntenin PDZ2 domain (residues 196–275), wild type (domain or fragment, UniProt O00560 196-275)
chain: B1 chain
Take B2: the binding result in assay [2] is “no binding”.

B3: syntenin PDZ2 domain (residues 196-275), mutant K214A/K250A (domain or fragment, UniProt O00560 196-275)
chain: B1 chain with K19A, K55A
Regarding B3, the binding entry in assay [3] was “no binding”.
